Numbering of substitutions follows the chain as printed. Read-outs that look alike come from different tables or passages of the source. Results are given in words; binding and its absence hold for the method and conditions named. For some of these results: Binding seen in cells or lysates may run through a third protein. Some results given as binding are weak or reduced against the parent protein; the word gives no strength. For some of these results: Tags and fused reporters may be left off the sequences shown.
B1: His-tagged MAD1-CTD (domain or fragment, UniProt Q9Y6D9 585-718)
chain: PADLEAAAASLPSSKEVAELKKQVESAELKNQRLKEVFQTKIQEFRKACYTLTGYQIDITTENQYRLTSLYAEHPGDCLIFKATSPSGSKMQLLETEFSHTVGELIEVHLRRQDSIPAFLSSLTLELFSRQTVA
B2: His-tagged MAD1-CTD^4A (domain or fragment, UniProt Q9Y6D9 585-718)
chain: B1 chain with S14A, S26A, T40A, T132A
B3: GST-MAD1-MIM (domain or fragment, human, UniProt Q9Y6D9 485-584, looked up)
chain: SSAEQSFLFSREEADTLRLKVEELEGERSRLEEEKRMLEAQLERRALQGDYDQSRTKVLHMSLNPTSVARQRLREDHSQLQAECERLRGLLRAMERGGTV

By UniProt entry, the sequences of proteins in these tests, tags left out. Where a name states a change or a piece, a line headed by the entry shows the natural chain unless it says otherwise. Chains listed by the source or under a name are the forms on record and can include a tag or linker. Residues count along the entry.
UniProt O60566, residues 1-371: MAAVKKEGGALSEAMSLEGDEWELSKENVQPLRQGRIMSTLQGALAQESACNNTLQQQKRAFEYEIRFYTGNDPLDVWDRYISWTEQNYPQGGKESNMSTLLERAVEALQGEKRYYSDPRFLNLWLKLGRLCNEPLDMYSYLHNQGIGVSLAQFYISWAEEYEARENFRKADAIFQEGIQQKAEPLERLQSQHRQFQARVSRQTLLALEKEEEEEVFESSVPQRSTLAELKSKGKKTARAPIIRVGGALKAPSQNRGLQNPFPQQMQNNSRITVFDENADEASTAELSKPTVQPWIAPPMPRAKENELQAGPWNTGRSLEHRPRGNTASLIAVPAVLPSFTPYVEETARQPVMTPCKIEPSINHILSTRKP
untagged MAD2^L13A (Q13257, form named): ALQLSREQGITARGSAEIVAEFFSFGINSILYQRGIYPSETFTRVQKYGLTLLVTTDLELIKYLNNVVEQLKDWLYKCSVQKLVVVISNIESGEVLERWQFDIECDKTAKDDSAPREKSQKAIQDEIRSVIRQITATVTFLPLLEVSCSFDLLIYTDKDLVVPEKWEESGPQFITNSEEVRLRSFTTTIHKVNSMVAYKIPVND

Legend:
Assay in all cases: pull-down
GST-BUBR1^(1-371) = GST-BUBR1^(1-371) (UniProt O60566)
GST-MAD1-CTD (human) = target: T1, GST-MAD1-CTD (human) (UniProt Q9Y6D9)
T1 sequence: B1 chain

GST-MAD1-CTD^4A (human) = target: T2, GST-MAD1-CTD^4A (human) (UniProt Q9Y6D9)
T2 sequence: B1 chain with S14A, S26A, T40A, T132A

GST-MAD1-NTD = target: T3, GST-MAD1-NTD (human, UniProt Q9Y6D9 1-485)
T3 sequence (looked up): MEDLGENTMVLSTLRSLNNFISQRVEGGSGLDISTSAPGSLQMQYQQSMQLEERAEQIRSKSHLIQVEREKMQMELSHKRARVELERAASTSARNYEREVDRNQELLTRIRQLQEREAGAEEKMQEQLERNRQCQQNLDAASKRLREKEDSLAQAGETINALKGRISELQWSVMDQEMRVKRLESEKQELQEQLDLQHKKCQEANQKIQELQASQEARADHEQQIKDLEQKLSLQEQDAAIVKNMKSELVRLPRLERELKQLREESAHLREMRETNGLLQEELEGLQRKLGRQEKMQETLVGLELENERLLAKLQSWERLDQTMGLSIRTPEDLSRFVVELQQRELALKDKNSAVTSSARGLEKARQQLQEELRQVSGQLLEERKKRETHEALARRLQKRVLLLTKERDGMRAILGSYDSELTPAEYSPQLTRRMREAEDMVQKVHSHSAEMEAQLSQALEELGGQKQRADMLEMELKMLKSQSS

| Molecule | binding (GST-BUBR1^(1-371)) | binding (GST-MAD1-CTD (human)) | binding (GST-MAD1-CTD^4A (human)) | binding (GST-MAD1-NTD) | binding (GST-MAD1-NTD; record 2) |
| --- | --- | --- | --- | --- | --- |
| untagged MAD2^L13A (from UniProt Q13257 2-205) | binds |  |  |  |  |
| B1 |  | binds | binds | binds | binds |
| B2 |  |  | binds |  |  |
| B3 |  |  |  | no binding |  |
